{
  "source": "patent US20230028050A1",
  "binders": {"B1": {"name": "anti-idiotype antibody clone 15 (antibody, mouse IgG1, kappa, V domains shown)", "VH": "QVQLQQSGAELVKPGASVKISCKASGYAFSSYWMNWVKQRPGKGLEWIGQIYPGNGETNNNGKFKGKATLTADISSSTAYMQLSSLTSEDSAVYFCARGGWYFDVWGTGTTVTVSS", "VL": "DIQMTQSPASLSASVGETVTITCRASENIYSYLAWYQQKQGKSPHLLVYNAYTLAEGVPSRFSGSGSDTQFSLKINSLQPEDFGNYYCQHHYGTPWTFGGGTKVEIKR"}, "B2": {"name": "anti-idiotype antibody clone 16 (antibody, mouse IgG1, kappa, V domains shown)", "VH": "QVQLQQSGPELVKPGASVKISCKASGYTFTDFYINWVKQRPGQGLEWIGWIFPRSGSTYYNEKFKGKATLSVDKSSITAYMLLSSLTSEDSAVYFCARGDGYSGAMDYWGQGTSVTVSS", "VL": "DIQMTQTTSSLSASLGDRVTISCSASQGIRNYLNWYQQKPDGTVKLLIYYTSNLHSGVPSRFSGSGSGTDYSLTISNLEPEDIATYYCQQYNNLPRTFGGGTKLEIKR"}},
  "key": {"[1]": {"target": "GPRC5D-8", "assay": "flow cytometry; Jurkat T cells expressing the control CAR, anti-ID conjugated to Alexa Fluor 647"}, "[2]": {"target": "non-target anti-CD19 CAR", "assay": "cartridge-based flow cytometry (Accellix), fluorophore-conjugated clone 16 on primary T cells expressing the anti-CD19 CAR"}},
  "note": "These are yes or no findings as the source states them, for the method shown.",
  "data": [
    {"binder": "B1", "values": [
      {"measurement": "binding", "setting": "[1]", "result": "no binding (tested: 2.5 µg/mL)"}
    ]},
    {"binder": "B2", "values": [
      {"measurement": "binding", "setting": "[1]", "result": "no binding (tested: 2.5 µg/mL)"},
      {"measurement": "binding", "setting": "[2]", "result": "no binding (tested: less than or equal to 1% CAR frequency)"}
    ]}
  ]
}
